This note sets out measurements from PMC9345867.

Amino acid sequences for entries named in this document (tags omitted).
UniProt O14744: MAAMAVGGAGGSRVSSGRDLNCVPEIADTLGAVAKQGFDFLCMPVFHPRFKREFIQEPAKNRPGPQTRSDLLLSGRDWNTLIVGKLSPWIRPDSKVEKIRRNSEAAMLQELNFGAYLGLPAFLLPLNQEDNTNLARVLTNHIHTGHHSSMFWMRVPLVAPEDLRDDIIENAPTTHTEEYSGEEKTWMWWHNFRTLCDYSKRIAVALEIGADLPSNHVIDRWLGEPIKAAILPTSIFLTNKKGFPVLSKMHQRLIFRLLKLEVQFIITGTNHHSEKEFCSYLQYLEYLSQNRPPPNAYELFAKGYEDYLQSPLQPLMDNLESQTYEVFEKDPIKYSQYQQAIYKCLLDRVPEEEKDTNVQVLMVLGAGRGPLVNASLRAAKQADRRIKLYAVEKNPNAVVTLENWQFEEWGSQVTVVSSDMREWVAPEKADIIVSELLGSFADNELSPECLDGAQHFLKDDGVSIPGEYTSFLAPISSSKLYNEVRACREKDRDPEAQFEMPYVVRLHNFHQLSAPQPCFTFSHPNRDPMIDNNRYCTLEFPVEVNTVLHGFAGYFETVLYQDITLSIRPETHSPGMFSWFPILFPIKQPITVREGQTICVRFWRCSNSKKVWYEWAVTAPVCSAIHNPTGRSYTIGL

Results are given in words; binding and its absence hold for the method and conditions named. In cells and extracts the contact can be indirect. Some entries that bind do so weakly or less than the wild type. Where a sequence is shown, tags or fusion partners need not be part of it.

One experiment addresses T1, FLAG-CT47 (human) (UniProt Q5JQC4).
T1 sequence: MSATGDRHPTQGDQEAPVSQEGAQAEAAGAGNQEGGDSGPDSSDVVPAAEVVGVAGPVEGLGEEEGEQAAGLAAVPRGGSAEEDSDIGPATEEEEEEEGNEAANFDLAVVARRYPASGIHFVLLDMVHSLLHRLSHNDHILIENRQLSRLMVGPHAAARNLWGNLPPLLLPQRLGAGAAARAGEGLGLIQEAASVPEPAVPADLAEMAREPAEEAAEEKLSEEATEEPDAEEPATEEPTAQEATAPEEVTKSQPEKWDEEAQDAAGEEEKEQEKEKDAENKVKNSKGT
The experiment can be described thus: co-IP; HEK293T cells cotransfected with FLAG-CT47 and HA-PRMT5; reciprocal IPs with anti-FLAG or anti-HA antibodies, detection with anti-HA or anti-FLAG antibodies.

In another experiment the target is HA-PRMT5 (UniProt O14744). The description is as above.

Take “HA-PRMT5 (from UniProt O14744 1-637) (enzyme)”: the binding entry in the experiment with FLAG-CT47 (human) is recorded as “binds”.

B1: FLAG-CT47 (protein, UniProt Q5JQC4 1-288)
chain: MSATGDRHPTQGDQEAPVSQEGAQAEAAGAGNQEGGDSGPDSSDVVPAAEVVGVAGPVEGLGEEEGEQAAGLAAVPRGGSAEEDSDIGPATEEEEEEEGNEAANFDLAVVARRYPASGIHFVLLDMVHSLLHRLSHNDHILIENRQLSRLMVGPHAAARNLWGNLPPLLLPQRLGAGAAARAGEGLGLIQEAASVPEPAVPADLAEMAREPAEEAAEEKLSEEATEEPDAEEPATEEPTAQEATAPEEVTKSQPEKWDEEAQDAAGEEEKEQEKEKDAENKVKNSKGT
Regarding B1, the binding result in the experiment with HA-PRMT5 is recorded as “binds”.
